Test results reported in patent publication US20240190985A1.
No constants are given. Whether binding was seen depends on the method and setting. Some binding calls cover weakened binding; strength is not graded here. For some of these results: Sequences can lack the tags named with a protein.

T1: mouse CD99 (mouse) (UniProt Q8VCN6)
T1 sequence (looked up): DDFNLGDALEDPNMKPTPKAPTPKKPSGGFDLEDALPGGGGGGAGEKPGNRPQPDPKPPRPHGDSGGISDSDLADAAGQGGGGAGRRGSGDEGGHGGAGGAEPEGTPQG

T2: CD99 endogenously expressed on cells (Jurkat, KOPT-K1) (human) (UniProt P14209)
T2 sequence (chain, O-linked glycosylation (natural, on cells)): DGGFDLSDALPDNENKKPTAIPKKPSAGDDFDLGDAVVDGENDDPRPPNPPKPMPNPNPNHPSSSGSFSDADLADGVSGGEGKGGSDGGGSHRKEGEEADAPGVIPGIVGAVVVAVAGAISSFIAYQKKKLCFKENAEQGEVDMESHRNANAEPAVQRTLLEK


What was measured:
[1] = target: SAV-CD99 complex (biotinylated CD99 ECD tetramerized on streptavidin) (human); assay: titration of tetramerized CD99 on yeast-displayed scFv
[2] = target: SAV-CD99 complex (biotinylated CD99 ECD tetramerized on streptavidin) (human); assay: yeast display, binding signal with 100 nM SAV-CD99 complex (FIG. 5E)
mouse CD99 (mouse) [3] = target: T1, mouse CD99 (mouse); assay: binding of 1 µM Fv scFv-Fc to CD99 from different species (FIG. 1C)
[4] = target: T2, CD99 endogenously expressed on cells (Jurkat, KOPT-K1) (human); assay: flow cytometry on Jurkat cells (FIG. 1E)
mouse CD99 (mouse) [5] = target: T1, mouse CD99 (mouse); assay: binding of scFv-Fc to CD99 from different species (FIG. 1C)

Binder	binding [2]	also measured
10A1 in the yeast display format (scFv, V domains shown) VH: QVQLQQSGPVLVKPSQTLSLTCAISGDSISSDTTAWSWIRRSPSRGLEWLGWTYYRSKWFNYYAVSVKGRVTINPDTSKNQFSLQLSSVTPEDTAVYYCARGNGNGGMDVWGQGTTVTVSS VL: SYVLTQPASASVSPGQTARITCSGDALPKQYAYWYQQKPGQAPVLVIFKDSERPSGVPERFSGSSSGTTVTLTISGAQAEDEADYYCQSVDNSGFYQVFGGGTQLTVL	–	binding [1]: binds
10A1 VH_N105A (yeast display format) (scFv, V domains shown) VH: QVQLQQSGPVLVKPSQTLSLTCAISGDSISSDTTAWSWIRRSPSRGLEWLGWTYYRSKWFNYYAVSVKGRVTINPDTSKNQFSLQLSSVTPEDTAVYYCARGNGAGGMDVWGQGTTVTVSS VL: SYVLTQPASASVSPGQTARITCSGDALPKQYAYWYQQKPGQAPVLVIFKDSERPSGVPERFSGSSSGTTVTLTISGAQAEDEADYYCQSVDNSGFYQVFGGGTQLTVL	binds	–
10A1 VH_K58A (yeast display format) (scFv, V domains shown) VH: QVQLQQSGPVLVKPSQTLSLTCAISGDSISSDTTAWSWIRRSPSRGLEWLGWTYYRSAWFNYYAVSVKGRVTINPDTSKNQFSLQLSSVTPEDTAVYYCARGNGNGGMDVWGQGTTVTVSS VL: SYVLTQPASASVSPGQTARITCSGDALPKQYAYWYQQKPGQAPVLVIFKDSERPSGVPERFSGSSSGTTVTLTISGAQAEDEADYYCQSVDNSGFYQVFGGGTQLTVL	binds	–
10A1 VL_K29A (yeast display format) (scFv, V domains shown) VH: QVQLQQSGPVLVKPSQTLSLTCAISGDSISSDTTAWSWIRRSPSRGLEWLGWTYYRSKWFNYYAVSVKGRVTINPDTSKNQFSLQLSSVTPEDTAVYYCARGNGNGGMDVWGQGTTVTVSS VL: SYVLTQPASASVSPGQTARITCSGDALPAQYAYWYQQKPGQAPVLVIFKDSERPSGVPERFSGSSSGTTVTLTISGAQAEDEADYYCQSVDNSGFYQVFGGGTQLTVL	binds	–
10A1 VL_Y96A (yeast display format) (scFv, V domains shown) VH: QVQLQQSGPVLVKPSQTLSLTCAISGDSISSDTTAWSWIRRSPSRGLEWLGWTYYRSKWFNYYAVSVKGRVTINPDTSKNQFSLQLSSVTPEDTAVYYCARGNGNGGMDVWGQGTTVTVSS VL: SYVLTQPASASVSPGQTARITCSGDALPKQYAYWYQQKPGQAPVLVIFKDSERPSGVPERFSGSSSGTTVTLTISGAQAEDEADYYCQSVDNSGFAQVFGGGTQLTVL	binds	–
clone 10 in the scFv-Fc format (Fc fusion) QVQLQQSGPVLVKPSQTLSLTCAISGDSVSSDTTAWSWIRQSPSRGLEWLGWTYYRSKWFNYYAVSVKSRVTINPDTSKNQFSLQLSSVTPEDTAVYYCARGNGNGGMDVWGQGTTVTVSSGILGSGGGGSGGGGSGGGGSSYVLTQPPSVSVSPGQTARITCSGDALPKQYAYWYQQKPGQAPVLVIFKDSERPSGIPERFSGSSSGTTVTLTISGVQAEDEADYYCQSADNSGFYQVFGGGTQLTVLSGSSSSLEGCKPCICTVPEVSSVFIFPPKPKDVLTITLTPKVTCVVVDISKDDPEVQFSWFVDDVEVHTAQTQPREEQFNSTFRSVSELPIMHQDWLNGKEFKCRVNSAAFPAPIEKTISKTKGRPKAPQVYTIPPPKEQMAKDKVSLTCMITDFFPEDITVEWQWNGQPAENYKNTQPIMDTDGSYFVYSKLNVQKSNWEAGNTFTCSVLHEGLHNHHTEKSLSHSPGKGGGGLNDIFEAQKIEWHESRHHHHHH	–	binding (mouse CD99 (mouse) [3]): binds; binding [4]: binds; binding (mouse CD99 (mouse) [5]): binds

Second part, led by results:

binding [2]	Binder	also measured
binds	10A1 VL_K49A (yeast display format) (scFv, V domains shown) VH: QVQLQQSGPVLVKPSQTLSLTCAISGDSISSDTTAWSWIRRSPSRGLEWLGWTYYRSKWFNYYAVSVKGRVTINPDTSKNQFSLQLSSVTPEDTAVYYCARGNGNGGMDVWGQGTTVTVSS VL: SYVLTQPASASVSPGQTARITCSGDALPKQYAYWYQQKPGQAPVLVIFADSERPSGVPERFSGSSSGTTVTLTISGAQAEDEADYYCQSVDNSGFYQVFGGGTQLTVL	–
binds	10A1 VH_F60A (yeast display format) (scFv, V domains shown) VH: QVQLQQSGPVLVKPSQTLSLTCAISGDSISSDTTAWSWIRRSPSRGLEWLGWTYYRSKWANYYAVSVKGRVTINPDTSKNQFSLQLSSVTPEDTAVYYCARGNGNGGMDVWGQGTTVTVSS VL: SYVLTQPASASVSPGQTARITCSGDALPKQYAYWYQQKPGQAPVLVIFKDSERPSGVPERFSGSSSGTTVTLTISGAQAEDEADYYCQSVDNSGFYQVFGGGTQLTVL	–
